Data taken from patent US9304123B2, “Biomarkers used to detect and monitor neurological autoimmune diseases” (NUtech Ventures, priority 2012, dated 2016).
At least one structure is not confirmed: it was looked up by name or label, or the drawing left a doubt.

Tested on: EAE mice
Assay: NMR metabolomics of urine from EAE mice treated with fingolimod
Type: in vivo, C57B1/6 mice

## CCCCCCCCc1ccc(CCC(N)(CO)CO)cc1 [fingolimod]
EAE mice treated with fingolimod 1 mg/kg i.p. daily, FIG. 4A
  clustering in 2D OPLS-DA score plot of urine NMR spectra: clustered with the controls
EAE mice, fingolimod 1 mg/kg body weight intraperitoneally daily from day 7 until day 30, FIG. 3
  urine metabolites observed in the 1D 1H NMR spectra: resembled the NMR spectra for the healthy mice
